Measured data: PubChem BioAssay AID1259254 (NCATS, 2017)

- Assay: 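Gene knock-downs that lead to re-replication, shown by excess G2 DNA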 (primary screen)
- System: human HCT116 colorectal cancer cells
- Knock-down reagent: single siRNA against human genes
- Time to read-out: 3 days
- Detection: 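Imaged Hoechst DNA stain sorts each cell into a cycle phase by DNA amount; per plate, G2 fraction set to 0% for non-targeting and 100% for GMNN siRNA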
- Direction: G2 robust z-score: higher = more G2 cells, more excess DNA replication
- Call rule: 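An siRNA counts as active if its G2 robust z-score lies at least 5 MADs above the screen median; here such calls match roughly 38% of GMNN control or more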
In all, the deposit lists about 59,000 reagents; this is a part drawn at random. Of all reagents, about 1,550 (2.6%) are marked active. 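G2 share is only a proxy for re-replication; each gene was hit by three separate siRNAs, and active genes were retested.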 Reagents against one gene are numbered here. Further read-outs or replicates are left out here. Not stated in the record: the amount of reagent.

G2 robust z-score, by target gene and reagent
C1QTNF1: #1 1.09 inactive; #2 -0.281 inactive; #3 -1.06 inactive
SULT2A1: #1 -0.501 inactive; #2 -0.767 inactive; #3 3.06 inactive
LINC02843: #1 0.252 inactive; #2 -0.713 inactive; #3 0.0837 inactive
KLRC1: #1 0.736 inactive; #2 -1.24 inactive; #3 -0.785 inactive
MYOZ3: #1 0.118 inactive; #2 -0.714 inactive; #3 -0.591 inactive
RASL10B: #1 -0.456 inactive; #2 -0.313 inactive; #3 -0.894 inactive
GMFB: #1 0.0293 inactive; #2 0.241 inactive; #3 -0.418 inactive
SPSB2: #1 3.38 inactive; #2 -0.256 inactive; #3 -1.4 inactive
RNF170: #1 -1.67 inactive; #2 -0.433 inactive; #3 -0.318 inactive
RABGGTA: #1 1.24 inactive; #2 0.0892 inactive; #3 -0.12 inactive

Entries listed so far whose target name starts with S or s (6):
G2 robust z-score, by target gene and reagent
SULT2A1: #1 -0.501 inactive; #2 -0.767 inactive; #3 3.06 inactive
SPSB2: #1 3.38 inactive; #2 -0.256 inactive; #3 -1.4 inactive

Further entries:
G2 robust z-score, by target gene and reagent
TMED10: #1 0.634 inactive; #2 1.17 inactive; #3 1.41 inactive
SCRIB: #1 3.36 inactive; #2 0.0653 inactive; #3 -0.401 inactive
FBXO4: #1 5.18 active; #2 1.49 inactive; #3 1.69 inactive
NUTM1: #1 0.994 inactive; #2 -0.349 inactive; #3 4.41 inactive
CEP170: #1 -0.336 inactive; #2 0.516 inactive; #3 0.123 inactive
DEFA1: #1 0.183 inactive; #2 0.309 inactive; #3 0.808 inactive
